# Results as given in patent publication US20250197351A1, “C4-CARBOXYLIC ACID-S[…] DERIVATIVES AND METHODS OF USING” (priority 2022, published 2025).
# Protein sequences, listed by entry. Tags and fused reporters are not part of them.
# UniProt P35363, whole entry: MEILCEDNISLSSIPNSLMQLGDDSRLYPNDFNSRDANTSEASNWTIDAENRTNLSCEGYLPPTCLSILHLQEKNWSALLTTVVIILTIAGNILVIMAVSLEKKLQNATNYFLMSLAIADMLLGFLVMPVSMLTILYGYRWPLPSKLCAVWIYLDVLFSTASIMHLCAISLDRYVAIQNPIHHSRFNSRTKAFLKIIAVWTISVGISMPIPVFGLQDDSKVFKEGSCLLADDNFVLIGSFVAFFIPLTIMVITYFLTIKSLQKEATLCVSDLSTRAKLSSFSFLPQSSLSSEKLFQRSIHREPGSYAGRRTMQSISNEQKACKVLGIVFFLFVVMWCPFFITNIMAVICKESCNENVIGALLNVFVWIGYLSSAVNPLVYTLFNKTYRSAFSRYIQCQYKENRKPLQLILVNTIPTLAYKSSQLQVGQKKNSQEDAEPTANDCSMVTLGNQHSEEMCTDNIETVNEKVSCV
# UniProt P28223, whole entry: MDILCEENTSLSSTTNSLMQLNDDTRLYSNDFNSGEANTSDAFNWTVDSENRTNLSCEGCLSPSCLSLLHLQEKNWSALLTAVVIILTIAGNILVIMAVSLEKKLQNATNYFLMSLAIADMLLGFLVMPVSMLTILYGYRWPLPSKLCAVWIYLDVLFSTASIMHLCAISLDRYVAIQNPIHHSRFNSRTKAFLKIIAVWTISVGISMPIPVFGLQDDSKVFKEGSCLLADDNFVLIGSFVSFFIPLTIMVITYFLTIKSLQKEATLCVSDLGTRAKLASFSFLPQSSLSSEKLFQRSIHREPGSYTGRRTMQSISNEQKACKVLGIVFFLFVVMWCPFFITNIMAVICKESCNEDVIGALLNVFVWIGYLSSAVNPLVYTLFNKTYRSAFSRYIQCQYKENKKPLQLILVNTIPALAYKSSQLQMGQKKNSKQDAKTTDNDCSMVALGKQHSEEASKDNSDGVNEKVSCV
# At least one compound was matched to its structure with a doubt left.
# Columns and labels:
# [1] = molecular target: T1, 5-HT2A receptor (5-HT2AR) (Mus musculus, UniProt P35363); assay: Drug-induced Head Twitch Response (HTR); assay type: in vivo; conditions: 1 mg/kg i.p., 15-to-30-minute window post-drug, relative to vehicle
# T1 construct: host or cells: C57BL/6 mice, in vivo (neuronal receptor)
# 5-HT2A receptor = 5-HT2A receptor (Homo sapiens, UniProt P28223); conditions: literature (McKenna and Peroutka 1989; PDSP Certified Data); cited from earlier work
smiles,measurement,setting,value
"CN(C)CCc1c[nH]c2cccc(OP(=O)(O)O)c12 [psilocybin, reference compound]",Head Twitch Response (HTR) incidence,[1],Elevated incidences of HTR
same,Binding of intact molecule at 5-HT2A,5-HT2A receptor,very weak
